Some of the results follow.
tested on: T1, CTL2-GFP (C. trachomatis L2/434/Bu, GFP-expressing); design: species or system HeLa; Intracellular C. trachomatis growth in HeLa cells, bulk GFP fluorescence relative to DMSO; settings: bulk GFP, single well; 28.5 h, 10 µM; inhibitor
T1 construct: L2/434/Bu, GFP-expressing

Row | SMILES | % of control remaining [%]
1 | Clc1ccc(C2NCCS2)c(Cl)c1 (stereo not shown) [CBK027425] | 134.623
2 | Cc1c(S(=O)(=O)Nc2nnn[nH]2)sc2ccc(Cl)cc12 [CBK062392] | 137.116
3 | CC(OC(=O)c1ccc2nccnc2c1)c1cccc([N+](=O)[O-])c1 (stereo not shown) [CBK297901] | 117.33
4 | CCCC[C@H]1CC[C@H](C(=O)Oc2ccc(OC(C)C(=O)O)cc2)CC1 (stereo partly shown) [CBK160854] | 106.722
5 | CN1CCN(c2ccc(C(=O)N3CCC(F)CC3)cc2)CC1 [CBK200265] | 107.206
6 | COc1ccc(SC(C)C(=O)N2CCN(c3ccc([N+](=O)[O-])nc3)CC2)cc1 (stereo not shown) [CBK298282] | 105.725
7 | COc1ccc(C(NC(=O)C2CC=CCC2C(=O)O)c2ccccc2)cc1 (stereo not shown) [CBK264264] | 118.005
8 | O=S(=O)(CCN1CCC(Cc2ccccc2)CC1)c1ccccc1 [CBK126386] | 119.37
9 | O=C(CCN1CCn2nc(C(O)C3CC3)cc2C1)NCc1cccs1 (stereo not shown) [CBK306603] | 108.652
10 | CC1=C[C@@H](CNC(=O)c2cccnc2)[C@H](C(C)C)C[C@H]1CC(=O)N1CCOCC1 [CBK289053] | 95.8174
11 | CN(C)CCN(Cc1nc2ccccc2[nH]1)Cc1cccs1 [CBK283020] | 132.021
12 | c1ccc2c(c1)n[n+]1c3ccccc3[n-]n21 [CBK260974] | 123.023
13 | O=C(O)CCSCC(=O)c1ccc(NS(=O)(=O)c2ccccc2)cc1 [CBK300504] | 135.035
14 | O=C1NC2(CCCCC2)C(=O)N1CCS(=O)(=O)Oc1ccc(Br)cc1 [CBK261303] | 100
15 | c1ccc(CCNc2nc(-c3ccc(N4CCOCC4)cc3)cn3ccnc23)nc1 [CBK037271] | 211.865
16 | O=C(O)c1cc(/C=C/c2ccc(Br)cc2)nc2ccccc12 [CBK299805] | 128.172
17 | O=C(NC1CC1)[C@H]1O[C@H](CCN2CCN(c3ccccc3)CC2)CC[C@@H]1O [CBK288717] | 115.331
18 | COc1cccc(-c2ccc(C(=O)Nc3ccc4c(c3)OCO4)c(N3CCOCC3)n2)c1 [CBK076509] | 114.069
19 | CC(C)CNc1ncc(-c2ccc(N3CCOCC3)cc2)n2ccnc12 [CBK091273] | 159.075
20 | CCn1ncc(S(=O)(=O)Nc2ccc3c(c2)cc(C)n3C)c1C [CBK282761] | 109.371
21 | CCc1ccc(C(O)CNC2CCN(CC(F)F)CC2)cc1 (stereo not shown) [CBK304144] | 112.41
22 | Cc1ccc(NC(=O)c2cnc(SCc3ccc(F)cc3)n(C)c2=O)cc1C [CBK287674] | 118.087
23 | Clc1ccc(CN2CCC(Oc3cncc(OCC4COc5ccccc5O4)n3)C2)cc1 (stereo not shown) [CBK084364] | 104.235
24 | CC(C)c1ccc(NS(=O)(=O)c2csc3ccnc(N4CCNCC4)c23)cc1 [CBK042343C] | 66.6485
25 | Fc1ccc(C(c2nnnn2C2CCCCC2)N2CCCCC2)cc1 (stereo not shown) [CBK141670] | 70.1348
26 | Cn1cccc1C(=O)Nc1cc2ccccc2c(N2CCNCC2)n1 [CBK036347T] | 115.576
27 | Cc1cnc(C(=O)N2CCC3(CC2)CC(=O)c2cc(Cl)cc(Cl)c2O3)cn1 [CBK156502] | 116.53

Row | SMILES | % of control remaining [%]
28 | Cc1c(C(=O)O)sc2ncn(CCOc3ccc(Cl)cc3)c(=O)c12 [CBK286808] | 95.6274
29 | COc1cc(Cl)cc(/C=N\NC(=O)C2C(=O)NCC2c2ccccc2)c1O (stereo not shown) [CBK262825] | 109.975
30 | Cc1cc2cc(C(=O)NCC3CCCN(C(C)C)C3)ccc2o1 (stereo not shown) [CBK282625] | 90.0264
31 | Cc1ccc(-c2nccnc2OCCOc2ccccc2)cc1C [CBK106865] | 100
32 | Cc1cc(-c2cc(=O)n(Cc3ccccc3)nc2C2CC2)on1 [CBK284365] | 80.5474
33 | CC(c1ccc2c(c1)OCO2)c1cc2c(cc1OCCO)OCO2 (stereo not shown) [CBK200110] | 70.113
34 | N#CCCCN1CCN(c2nccnc2OCCN2C(=O)CCC2=O)CC1 [CBK084299] | 108.93
35 | Nc1nnc(SCC(=O)N(Cc2ccccc2F)C2CC2)s1 [CBK295179] | 174.451
36 | CN1CCC(COC(=O)Nc2ccc3cc[nH]c3c2)CC1 [CBK200130] | 131.209
37 | Cc1cc(C)c2c3c(sc2n1)C(=O)N(C)CC(=O)N3 [CBK287959] | 141.718
38 | O=C(O)c1ccccc1NC1CC(=O)N(C2CCCCC2)C1 (stereo not shown) [CBK286556] | 116.635
39 | Cc1ccc(-c2nn(CCC#N)cc2C(=O)N2CCCC2)cc1C [CBK305974] | 108.006
40 | O=c1c(Cl)nc(Cl)c(C2CCCCC2)n1Cc1ccccc1 [CBK012671] | 63.1542
41 | O=C(NC1CN2CCC1CC2)c1ncoc1-c1ccccc1 (stereo not shown) [CBK283888] | 96.8737
42 | O=[N+]([O-])c1ccc2c(/C=N/c3ccc(-c4nc5ccccc5s4)cc3)c(O)ccc2c1 [CBK261483] | 107.745
43 | CCOc1ccc(C(=O)NCCC(=O)O)cc1 [CBK261725D] | 113.557
44 | O=C(C1CC1)N1CCCC1c1nc(-c2ccc(F)cc2)n[nH]1 (stereo not shown) [CBK283934] | 82.8533
45 | Cc1ccc(S(N)(=O)=O)cc1NC(=O)c1ccc(Br)o1 [CBK003693] | 125.901
46 | COc1cc(CNC2CCCCC2)cc(I)c1OCC(N)=O [CBK269158C] | 175.006
47 | O=C(NC(=S)Nc1cc(-c2nc3ccccc3[nH]2)ccc1Cl)c1ccccc1[N+](=O)[O-] [CBK268649] | 127.512
48 | O=C(Cc1cccs1)Nc1cccc(C(=O)Nc2cccc(C(=O)O)c2)c1 [CBK268509] | 121.207
49 | COc1ccc(S(=O)(=O)N2CCN(C(=O)COc3ccc(C)cc3)CC2)cc1 [CBK263354] | 100
50 | Cc1ccc(N(CC(=O)Nc2ccccc2C(N)=O)S(=O)(=O)c2ccccc2)cc1C [CBK265246] | 94.4909
51 | COc1ccc(/C=C/C(=O)O)cc1S(=O)(=O)Nc1ccc(C(=O)O)cc1 [CBK261246] | 100
52 | COc1ccc(S(=O)(=O)Nc2c(C(=O)N3CCOCC3)sc3ncccc23)cc1OC [CBK050005] | 74.8813
53 | COc1cc(C(=O)N2CCN(c3cc(C(C)C)ccc(CO)c3=O)CC2)cc(OC)c1OC [CBK007673] | 119.322
54 | CCCCc1nccn1CCn1ccnc1CCCC [CBK020437] | 136.389

Row | SMILES | % of control remaining [%]
55 | COc1ccc(CCN2C(=O)CC(N3CCN(Cc4ccc5c(c4)OCO5)CC3)C2=O)cc1OC (stereo not shown) [CBK074555] | 108.472
56 | COc1ccc2nc(Nc3nc(=O)cc(CSc4nc5ccccc5s4)[nH]3)nc(C)c2c1 [CBK264854] | 112.622
57 | CCN1CCCC1CNc1c(Cl)c(Cl)nc2c1c(=O)n(C)c(=O)n2C (stereo not shown) [CBK007287] | 131.008
58 | COCC(=O)N1CCC(c2cc(-c3ccc(F)cc3)n[nH]2)C1 (stereo not shown) [CBK284600] | 139.76
59 | CCN(CC)C(=O)C1CCCN(C(=O)NCC2COc3ccccc3O2)C1 (stereo not shown) [CBK156116] | 162.031
60 | O=C(C1CCC1)N1CCC(c2nc(C3CCCC3)no2)C1 (stereo not shown) [CBK285434] | 107.642
61 | COc1ccc(Sc2nc3cc(Cl)c(Cl)cc3nc2NC(C)C)cc1OC [CBK093792] | 107.64
62 | O=C(NCC1CCCO1)c1ccc(CNS(=O)(=O)c2cccc(Cl)c2)cc1 (stereo not shown) [CBK267219] | 144.116
63 | O=C(CN1C(=O)C2C3C=CC(C3)C2C1=O)OCC(=O)c1ccccc1 (stereo not shown) [CBK265112] | 138.988
64 | CCn1cc(Cl)c(C(=O)Nc2ccsc2C(=O)OC)n1 [CBK058439] | 127.365
65 | Cn1ccc(C(=O)NC(Cc2ccsc2)c2nccs2)cc1=O (stereo not shown) [CBK285143] | 121.129
66 | O=C(O)CCCN1C(=O)/C(=C\c2ccccn2)SC1=S [CBK264552] | 119.875
67 | O=C(Cc1c[nH]c2ccccc12)N1CCc2ccccc21 [CBK200366] | 159.32
68 | COc1cc(Nc2cc(-c3ccc(NC(C)=O)cc3)ncn2)cc(OC)c1OC [CBK090710] | 167.348
69 | O=C1NC2(CCN(C(=O)Cc3ccc(F)cc3)CC2)Oc2ccc(-c3ccccc3)cc21 [CBK115832] | 130.67
70 | Cc1cccc(NCC2CCN(CC(=O)Nc3cc(C)on3)C2)n1 (stereo not shown) [CBK306118] | 133.609
71 | NC(=O)Nc1ccc(C(=O)N2CCN(c3ccccc3)CC2)cc1 [CBK306392] | 89.8122
72 | O=C(O)c1cccc(S(=O)(=O)Nc2nc3c(Cl)cccc3s2)c1 [CBK161135] | 111.432
73 | O=C(O)C1CCN(C2C(=O)Nc3ccc(Cl)cc3C2c2ccccc2)CC1 (stereo not shown) [CBK287210] | 122.124
74 | CCc1ccccc1C(=O)N1CCCCC1CC (stereo not shown) [CBK081556] | 127.619
75 | O=c1c2cc(Br)cc(F)c2ncn1CCC1CCCO1 (stereo not shown) [CBK306451] | 143.449
76 | Cc1cc(CCCC(=O)N2CCCC(c3ccc(Nc4ncccn4)cn3)C2)ccc1F (stereo not shown) [CBK286003] | 117.692
77 | C(=C\c1ccccc1)/CN1CCN(c2ncccn2)CC1 [CBK261909] | 99.3362
78 | Fc1cc(CN2CCC3(CC2)OCCc2c3[nH]c3ccc(Br)cc23)cc(F)c1F [CBK039943] | 29.5608
79 | CN(Cc1ccccc1)c1nccnc1-c1ccc(CO)cc1 [CBK038067] | 185.295

Among those listed so far, 5 contain an aryl thioether with sulfur outside any ring.
Row | SMILES | % of control remaining [%]
6 | COc1ccc(SC(C)C(=O)N2CCN(c3ccc([N+](=O)[O-])nc3)CC2)cc1 (stereo not shown) [CBK298282] | 105.725
22 | Cc1ccc(NC(=O)c2cnc(SCc3ccc(F)cc3)n(C)c2=O)cc1C [CBK287674] | 118.087
35 | Nc1nnc(SCC(=O)N(Cc2ccccc2F)C2CC2)s1 [CBK295179] | 174.451
56 | COc1ccc2nc(Nc3nc(=O)cc(CSc4nc5ccccc5s4)[nH]3)nc(C)c2c1 [CBK264854] | 112.622
61 | COc1ccc(Sc2nc3cc(Cl)c(Cl)cc3nc2NC(C)C)cc1OC [CBK093792] | 107.64

From paper PMC12040169 (PLOS Biology, 2025)
